Molecules are shown by their SMILES. The list shows a part of the results. Shown are side measurements of this screen, not its main read-out; they come without a call. Compounds called inactive in the main read-out are mostly missing here. Potencies come from curve fits of mixed quality, noted in brackets.

This assay in a line: qHTS Assay to Find Inhibitors of Chronic Active B-Cell Receptor Signaling. Particulars: ABC-DLBCL IkBa-CBG/CBR reporter, luminescence ratio (green luciferase fused to IkBa over red control in TMD8 lymphoma cells), 4 h. Put shortly: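 Doxycycline induced both beetle luciferases in TMD8 lymphoma cells; IKK-driven degradation limits the IkappaBalpha-fused green signal, while red luminescence normalises for cell number and nonspecific effects. Compounds tested up to 46 uM, 4 hrs.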
(In qHTS, concentration-response curves come from the screen itself.)

Where [1] appears, read: measured here: CBR red luminescence, cell number.
[2] abbreviates: measured here: IkBa-CBG green luminescence.

For orientation: AC50 means the concentration giving half of the maximal activity seen. Turning to `Cn1ccnc1Sc1ccc(/C=N/NC(=O)c2ccccc2[N+](=O)[O-])cc1[N+](=O)[O-]`, under setting [1], the AC50 was 10 µM [falling, partial curve, poor fit].

Turning to `COc1ccccc1-n1cnc2cc(C(=O)NCC3CCCO3)ccc21` (centres undefined), the AC50 under setting [1] is 7.31 µM [falling, partial curve, poor fit].

Consider `COc1cc(-c2nc(-c3ccc(Br)o3)no2)cc(OC)c1OC`, for which the concentration at half-maximal activity (AC50) under setting [1] was 1.78 µM [rising, full curve, poor fit].

As to `CC(=O)N(Cc1ccc(F)cc1)C1=C(NCc2ccccc2)C(=O)c2ccccc2C1=O`, the half-maximal activity concentration (AC50) reads like this: under setting [1], 16.4 µM [falling, single point]; under setting [2], 20.6 µM [rising, partial curve, poor fit].

In the case of `COc1cc(/C=N/NC(=O)c2ccccc2O)ccc1OC(=O)CC1SC(=O)NC1=O` (centres undefined), under setting [1], the half-maximal activity concentration (AC50) was 2.51 µM [falling, full curve].

With `COc1ccc(-c2cc(=O)n3[nH]cnc3n2)cc1`, the AC50 under setting [1] was 15.8 µM [falling, single point].

Turning to `COc1cc2c(cc1OC)C(c1ccccc1F)OC(=O)C2` (centres undefined), the AC50 under setting [1] was 9.2 µM [rising, partial curve, poor fit].

As to `O=C1c2cccc3c([N+](=O)[O-])ccc(c23)C(=O)N1Cc1cccnc1`, under setting [1], the AC50 is 15.8 µM [falling, single point].

In the case of `CCOC(=O)c1oc2cc(C)cc(O)c2c(=O)c1-c1csc(C)n1`, the AC50 under setting [1] is 2.59 µM [rising, single point].

Consider `CCCc1nc2ccc(NC(C)=O)cc2c(=O)n1Cc1ccc(Cl)cc1`, for which the AC50 under setting [1] is 1 µM [rising, full curve].

`O=C(Nc1nccs1)c1ccc(N2C(=O)[C@@H]3[C@H](C2=O)[C@H]2C=C[C@@H]3C2)cc1`: the AC50 runs as follows: under setting [1], 0.0891 µM [falling, full curve, poor fit]; under setting [2], 0.158 µM [rising, full curve].

For `Cc1ccnc(N/C=C(\C#N)c2nc(-c3cccc(Br)c3)cs2)c1`, the AC50 under setting [1] is 29.1 µM [rising, single point].

For `COc1ccc2c(c1)CCc1c(C(=O)N3CCCc4ccccc43)noc1-2`, the AC50 under setting [1] was 16.4 µM [falling, single point].

As for `COc1ccc2nc(N3CCOCC3)cc(C)c2c1`, under setting [1], the AC50 was 0.92 µM [rising, full curve, poor fit].

As for `CC(C)c1ccccc1-n1c(SCC(=O)N2CCc3ccccc3C2)nc2ccccc2c1=O`, the AC50 under setting [1] is 29.1 µM [falling, single point].

Regarding `O=C(CNC(=O)c1ccccc1F)NC1=NCCS1`, the AC50 under setting [1] was 3.55 µM [rising, partial curve].

As to `COc1ccccc1/C=C/C(=O)NCC(=O)N/N=C/c1cc(Br)ccc1OC`, under setting [1], the AC50 was 0.92 µM [rising, full curve].
